Laboratory results: patent publication US7342091B2, “Soluble cyclic analogues of β amyloid peptide” (Fraunhofer-Gesellschaf zur Forderung der angewandten …, priority 2001, dated 2008)
Some results were stated once for a whole list of compounds, not compound by compound.

Experiment: CD of peptide alone (β-pleated sheet formation and precipitation)
Format: physicochemical
Settings: 10 mM phosphate buffer, 150 mM NaCl, 30% acetonitrile, pH 5.5
Experimental: The effect of cβ-AP128 (SEQ ID NO: 20) on the aggregation and fibril formation of β-AP (1-28) was tested by CD and EM. A solution of 450 μM β-AP (1-28) (SEQ ID NO: […]) and cβ-AP128 (SEQ ID NO: […]) in 10 mM phosphate buffer, 150 mM NaCl and 30% acetonitrile, pH 5.5, was incubated for several days and tested for fibril formation by EM (FIGS. 2A and 2B).

[Lys^17, Asp^21] β-AP (1-28)
time to formation of β-pleated sheets (CD): less than 10 hours
